Results taken from paper PMC8463586.

What was measured:
Assay in all cases: co-IP; 293T cells transfected with the tagged constructs, harvested two days later; IP with mouse anti-Flag or mouse anti-Myc, immunoblot
[1] = biological target: T1, Flag-Diap1 (Drosophila IAP-1) (Drosophila) (UniProt Q24306)
T1 sequence: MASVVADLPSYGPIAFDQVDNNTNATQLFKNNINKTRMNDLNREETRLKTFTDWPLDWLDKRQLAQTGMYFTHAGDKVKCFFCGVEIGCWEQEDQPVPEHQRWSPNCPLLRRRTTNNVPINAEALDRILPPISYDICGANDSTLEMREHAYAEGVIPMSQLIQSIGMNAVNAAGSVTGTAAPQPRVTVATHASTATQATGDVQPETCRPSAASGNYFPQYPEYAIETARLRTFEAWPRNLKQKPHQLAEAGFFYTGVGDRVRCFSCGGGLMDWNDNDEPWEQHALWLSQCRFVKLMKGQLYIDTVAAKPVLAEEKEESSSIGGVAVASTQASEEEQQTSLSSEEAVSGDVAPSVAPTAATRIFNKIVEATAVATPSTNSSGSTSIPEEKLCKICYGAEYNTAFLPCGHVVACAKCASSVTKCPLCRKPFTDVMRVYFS

[2] = biological target: Flag-Rdx (Roadkill, E3 ubiquitin ligase) (Drosophila)
[3] = biological target: Myc-Rdx-BTB (aa180-374) (Drosophila)
[4] = biological target: Myc-Rdx-MATH (aa1-179) (Drosophila)

binding [1]: binds
Molecule: Myc-Rdx-MATH (aa1-179) (Drosophila) (domain or fragment)

binding [1]: no binding
Molecule: Myc-Rdx-BTB (aa180-374) (Drosophila) (domain or fragment)

The next lines start with the molecule.

B1: Myc-Diap1 (Drosophila IAP-1) (protein, UniProt Q24306 1-438)
chain: MASVVADLPSYGPIAFDQVDNNTNATQLFKNNINKTRMNDLNREETRLKTFTDWPLDWLDKRQLAQTGMYFTHAGDKVKCFFCGVEIGCWEQEDQPVPEHQRWSPNCPLLRRRTTNNVPINAEALDRILPPISYDICGANDSTLEMREHAYAEGVIPMSQLIQSIGMNAVNAAGSVTGTAAPQPRVTVATHASTATQATGDVQPETCRPSAASGNYFPQYPEYAIETARLRTFEAWPRNLKQKPHQLAEAGFFYTGVGDRVRCFSCGGGLMDWNDNDEPWEQHALWLSQCRFVKLMKGQLYIDTVAAKPVLAEEKEESSSIGGVAVASTQASEEEQQTSLSSEEAVSGDVAPSVAPTAATRIFNKIVEATAVATPSTNSSGSTSIPEEKLCKICYGAEYNTAFLPCGHVVACAKCASSVTKCPLCRKPFTDVMRVYFS
binding [2]: binds

B2: Flag-Diap1 (Drosophila IAP-1) (protein, UniProt Q24306 1-438)
chain: MASVVADLPSYGPIAFDQVDNNTNATQLFKNNINKTRMNDLNREETRLKTFTDWPLDWLDKRQLAQTGMYFTHAGDKVKCFFCGVEIGCWEQEDQPVPEHQRWSPNCPLLRRRTTNNVPINAEALDRILPPISYDICGANDSTLEMREHAYAEGVIPMSQLIQSIGMNAVNAAGSVTGTAAPQPRVTVATHASTATQATGDVQPETCRPSAASGNYFPQYPEYAIETARLRTFEAWPRNLKQKPHQLAEAGFFYTGVGDRVRCFSCGGGLMDWNDNDEPWEQHALWLSQCRFVKLMKGQLYIDTVAAKPVLAEEKEESSSIGGVAVASTQASEEEQQTSLSSEEAVSGDVAPSVAPTAATRIFNKIVEATAVATPSTNSSGSTSIPEEKLCKICYGAEYNTAFLPCGHVVACAKCASSVTKCPLCRKPFTDVMRVYFS
binding [3]: no binding
binding [4]: binds

Results are given in words; binding and its absence hold for the method and conditions named. Binding seen in cells or lysates may run through a third protein. For some assays here: A result given as binding can be weak or reduced; the word gives no strength. Where a sequence is shown, tags or fusion partners need not be part of it. One block for each molecule: values may come before it.
